Assay results published in the supplement of paper PMC10849652.
The other results are listed elsewhere or left out.

Amino acid sequences for entries named in this document (tags omitted). A change or cut given only in a name is not applied to a line headed by its entry.
UniProt Q9H4Z3: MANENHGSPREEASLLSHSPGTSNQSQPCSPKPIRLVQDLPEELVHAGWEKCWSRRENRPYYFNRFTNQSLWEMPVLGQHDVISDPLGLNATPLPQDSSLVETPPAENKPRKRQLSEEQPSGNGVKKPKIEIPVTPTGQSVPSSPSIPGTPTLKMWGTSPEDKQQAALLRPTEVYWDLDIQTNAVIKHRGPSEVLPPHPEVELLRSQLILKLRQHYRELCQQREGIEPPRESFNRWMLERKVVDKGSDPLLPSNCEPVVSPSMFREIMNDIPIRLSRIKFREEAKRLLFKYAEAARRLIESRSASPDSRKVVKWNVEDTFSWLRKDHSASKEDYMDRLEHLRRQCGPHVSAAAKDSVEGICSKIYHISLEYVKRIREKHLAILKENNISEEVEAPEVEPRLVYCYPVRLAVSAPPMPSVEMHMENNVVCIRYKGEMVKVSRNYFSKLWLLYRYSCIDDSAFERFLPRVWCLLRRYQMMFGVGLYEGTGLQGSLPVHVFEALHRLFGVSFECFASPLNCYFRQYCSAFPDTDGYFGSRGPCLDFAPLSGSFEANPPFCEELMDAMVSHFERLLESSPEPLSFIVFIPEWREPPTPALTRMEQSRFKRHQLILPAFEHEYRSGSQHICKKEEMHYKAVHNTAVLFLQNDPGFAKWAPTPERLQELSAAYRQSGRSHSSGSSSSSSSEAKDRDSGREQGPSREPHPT
UniProt Q6VY07, whole entry, looked up: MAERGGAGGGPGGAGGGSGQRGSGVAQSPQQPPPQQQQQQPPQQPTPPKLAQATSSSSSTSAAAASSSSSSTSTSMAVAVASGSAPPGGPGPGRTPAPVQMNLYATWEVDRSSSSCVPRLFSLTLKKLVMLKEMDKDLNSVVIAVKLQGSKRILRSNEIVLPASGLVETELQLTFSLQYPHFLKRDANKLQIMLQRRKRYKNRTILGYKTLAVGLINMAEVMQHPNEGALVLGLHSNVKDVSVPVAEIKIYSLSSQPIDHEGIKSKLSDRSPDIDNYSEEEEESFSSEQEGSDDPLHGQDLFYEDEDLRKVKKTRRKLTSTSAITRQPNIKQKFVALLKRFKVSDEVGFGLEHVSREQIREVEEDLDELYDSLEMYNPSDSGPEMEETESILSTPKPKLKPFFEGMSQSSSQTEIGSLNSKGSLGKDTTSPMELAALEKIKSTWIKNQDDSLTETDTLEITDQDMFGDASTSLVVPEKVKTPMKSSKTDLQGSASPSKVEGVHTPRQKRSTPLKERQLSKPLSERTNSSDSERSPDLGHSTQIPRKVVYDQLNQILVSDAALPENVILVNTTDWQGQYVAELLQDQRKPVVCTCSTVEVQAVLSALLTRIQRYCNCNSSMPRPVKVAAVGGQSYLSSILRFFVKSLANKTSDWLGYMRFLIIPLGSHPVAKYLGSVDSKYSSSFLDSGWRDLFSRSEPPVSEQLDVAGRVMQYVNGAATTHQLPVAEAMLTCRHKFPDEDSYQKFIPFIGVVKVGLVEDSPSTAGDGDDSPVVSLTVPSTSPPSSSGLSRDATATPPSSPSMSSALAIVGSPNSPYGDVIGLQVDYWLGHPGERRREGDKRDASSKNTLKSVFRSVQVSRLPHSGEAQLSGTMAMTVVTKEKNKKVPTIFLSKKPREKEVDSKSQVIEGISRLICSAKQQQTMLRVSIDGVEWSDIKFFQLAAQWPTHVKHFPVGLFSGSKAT
UniProt Q53EL6: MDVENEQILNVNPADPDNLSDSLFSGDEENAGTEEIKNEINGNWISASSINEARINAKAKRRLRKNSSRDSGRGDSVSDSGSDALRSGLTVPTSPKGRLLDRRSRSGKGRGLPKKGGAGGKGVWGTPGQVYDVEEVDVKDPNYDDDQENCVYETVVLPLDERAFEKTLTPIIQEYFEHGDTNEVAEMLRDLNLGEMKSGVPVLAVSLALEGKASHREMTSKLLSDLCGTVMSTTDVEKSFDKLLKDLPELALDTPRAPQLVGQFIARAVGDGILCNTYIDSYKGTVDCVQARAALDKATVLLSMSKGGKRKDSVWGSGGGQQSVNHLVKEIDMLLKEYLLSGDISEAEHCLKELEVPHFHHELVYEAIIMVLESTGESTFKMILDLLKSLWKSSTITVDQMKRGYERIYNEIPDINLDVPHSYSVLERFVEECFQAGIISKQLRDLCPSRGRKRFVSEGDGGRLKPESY
UniProt Q15121, whole entry, looked up: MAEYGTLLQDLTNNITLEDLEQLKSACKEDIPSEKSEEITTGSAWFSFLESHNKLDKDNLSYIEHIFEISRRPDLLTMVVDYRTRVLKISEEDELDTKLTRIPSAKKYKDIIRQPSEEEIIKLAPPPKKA
UniProt Q9NR12, whole entry, looked up: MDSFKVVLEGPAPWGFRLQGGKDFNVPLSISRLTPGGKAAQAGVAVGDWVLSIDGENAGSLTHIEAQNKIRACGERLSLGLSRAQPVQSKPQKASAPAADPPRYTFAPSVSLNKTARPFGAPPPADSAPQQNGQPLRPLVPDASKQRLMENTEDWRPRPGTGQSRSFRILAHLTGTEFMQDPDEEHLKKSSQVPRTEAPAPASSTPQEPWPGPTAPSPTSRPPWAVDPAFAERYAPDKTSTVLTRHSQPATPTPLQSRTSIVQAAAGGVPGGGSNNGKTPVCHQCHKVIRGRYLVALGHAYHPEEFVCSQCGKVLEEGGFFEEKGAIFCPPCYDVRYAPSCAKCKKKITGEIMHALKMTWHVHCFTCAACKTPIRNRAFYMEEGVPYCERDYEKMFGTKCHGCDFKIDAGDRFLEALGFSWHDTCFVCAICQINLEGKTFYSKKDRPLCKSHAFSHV
UniProt Q15102: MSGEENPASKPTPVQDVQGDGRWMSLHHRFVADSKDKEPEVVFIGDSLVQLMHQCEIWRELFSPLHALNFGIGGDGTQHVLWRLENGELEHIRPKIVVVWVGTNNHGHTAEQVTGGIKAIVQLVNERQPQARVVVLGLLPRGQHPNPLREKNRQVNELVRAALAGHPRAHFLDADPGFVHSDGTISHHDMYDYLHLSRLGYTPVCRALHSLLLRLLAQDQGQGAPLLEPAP
UniProt Q5EBL8: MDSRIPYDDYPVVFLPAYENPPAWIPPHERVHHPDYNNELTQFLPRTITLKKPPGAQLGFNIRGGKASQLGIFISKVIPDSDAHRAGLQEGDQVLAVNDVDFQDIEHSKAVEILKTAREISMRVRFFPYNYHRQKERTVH
UniProt P35227: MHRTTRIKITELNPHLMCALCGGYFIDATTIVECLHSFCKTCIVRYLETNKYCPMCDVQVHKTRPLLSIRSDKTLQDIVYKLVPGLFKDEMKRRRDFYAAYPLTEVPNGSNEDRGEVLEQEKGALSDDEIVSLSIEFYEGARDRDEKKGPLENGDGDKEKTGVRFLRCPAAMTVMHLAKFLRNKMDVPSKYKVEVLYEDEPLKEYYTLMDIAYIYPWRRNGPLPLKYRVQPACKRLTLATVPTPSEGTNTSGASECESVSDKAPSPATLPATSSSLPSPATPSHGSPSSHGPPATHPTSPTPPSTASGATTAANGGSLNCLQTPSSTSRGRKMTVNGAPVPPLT
UniProt Q15366, whole entry, looked up: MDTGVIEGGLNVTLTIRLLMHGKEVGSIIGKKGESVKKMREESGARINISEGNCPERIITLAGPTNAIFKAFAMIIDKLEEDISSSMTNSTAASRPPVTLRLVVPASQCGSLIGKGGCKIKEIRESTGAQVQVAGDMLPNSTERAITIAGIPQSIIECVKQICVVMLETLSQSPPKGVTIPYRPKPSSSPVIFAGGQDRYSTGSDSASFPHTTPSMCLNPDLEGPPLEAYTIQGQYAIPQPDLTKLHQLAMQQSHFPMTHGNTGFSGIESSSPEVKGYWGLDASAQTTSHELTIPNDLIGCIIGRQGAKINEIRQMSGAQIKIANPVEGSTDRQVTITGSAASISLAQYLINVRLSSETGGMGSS
UniProt Q86SE9: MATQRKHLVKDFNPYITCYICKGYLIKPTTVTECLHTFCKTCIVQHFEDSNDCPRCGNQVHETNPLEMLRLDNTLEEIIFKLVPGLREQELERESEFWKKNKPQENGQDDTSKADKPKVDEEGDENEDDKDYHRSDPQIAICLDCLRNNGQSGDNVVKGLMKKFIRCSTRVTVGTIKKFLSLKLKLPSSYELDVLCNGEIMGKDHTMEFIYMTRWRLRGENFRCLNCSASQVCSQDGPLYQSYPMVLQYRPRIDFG
UniProt Q9BRP1: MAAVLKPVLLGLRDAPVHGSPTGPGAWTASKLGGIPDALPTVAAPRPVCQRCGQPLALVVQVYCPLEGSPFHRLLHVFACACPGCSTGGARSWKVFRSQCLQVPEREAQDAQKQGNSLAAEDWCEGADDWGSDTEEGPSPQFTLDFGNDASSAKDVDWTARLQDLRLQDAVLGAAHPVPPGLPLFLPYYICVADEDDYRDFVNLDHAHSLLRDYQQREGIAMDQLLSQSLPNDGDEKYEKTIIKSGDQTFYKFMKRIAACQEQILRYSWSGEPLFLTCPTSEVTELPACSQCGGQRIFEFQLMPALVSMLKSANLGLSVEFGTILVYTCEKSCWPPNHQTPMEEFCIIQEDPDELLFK
UniProt P09874, whole entry, looked up: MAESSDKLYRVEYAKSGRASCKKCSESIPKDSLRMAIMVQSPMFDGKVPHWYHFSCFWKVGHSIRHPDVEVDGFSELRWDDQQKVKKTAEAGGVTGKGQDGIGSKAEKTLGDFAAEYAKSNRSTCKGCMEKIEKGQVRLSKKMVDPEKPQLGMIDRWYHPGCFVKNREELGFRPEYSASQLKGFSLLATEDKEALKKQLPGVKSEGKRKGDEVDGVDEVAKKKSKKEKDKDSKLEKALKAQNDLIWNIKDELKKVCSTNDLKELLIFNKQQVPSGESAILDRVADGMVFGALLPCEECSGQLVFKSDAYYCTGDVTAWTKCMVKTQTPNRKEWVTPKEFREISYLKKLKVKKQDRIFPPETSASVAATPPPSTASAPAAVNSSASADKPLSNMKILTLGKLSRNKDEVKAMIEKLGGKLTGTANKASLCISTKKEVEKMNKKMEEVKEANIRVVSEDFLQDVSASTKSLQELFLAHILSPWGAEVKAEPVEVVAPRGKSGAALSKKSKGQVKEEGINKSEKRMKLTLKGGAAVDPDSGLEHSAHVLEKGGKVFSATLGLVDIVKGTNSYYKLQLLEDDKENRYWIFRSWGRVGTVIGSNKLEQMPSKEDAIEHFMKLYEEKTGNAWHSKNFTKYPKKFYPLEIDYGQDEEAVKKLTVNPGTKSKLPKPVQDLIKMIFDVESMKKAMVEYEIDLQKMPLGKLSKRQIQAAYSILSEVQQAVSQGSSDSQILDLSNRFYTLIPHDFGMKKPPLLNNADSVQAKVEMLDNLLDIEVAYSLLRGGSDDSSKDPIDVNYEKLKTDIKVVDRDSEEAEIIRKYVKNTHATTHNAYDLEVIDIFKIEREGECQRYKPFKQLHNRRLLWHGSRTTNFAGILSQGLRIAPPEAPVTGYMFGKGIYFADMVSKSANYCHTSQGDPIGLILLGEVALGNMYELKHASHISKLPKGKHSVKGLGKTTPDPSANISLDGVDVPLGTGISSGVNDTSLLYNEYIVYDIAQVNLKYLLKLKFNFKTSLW
UniProt O75340: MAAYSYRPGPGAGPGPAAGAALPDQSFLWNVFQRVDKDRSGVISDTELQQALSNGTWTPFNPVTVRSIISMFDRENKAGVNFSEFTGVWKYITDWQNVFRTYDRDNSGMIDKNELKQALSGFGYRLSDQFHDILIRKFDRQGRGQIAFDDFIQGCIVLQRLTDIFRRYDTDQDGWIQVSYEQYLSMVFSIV
UniProt P51160: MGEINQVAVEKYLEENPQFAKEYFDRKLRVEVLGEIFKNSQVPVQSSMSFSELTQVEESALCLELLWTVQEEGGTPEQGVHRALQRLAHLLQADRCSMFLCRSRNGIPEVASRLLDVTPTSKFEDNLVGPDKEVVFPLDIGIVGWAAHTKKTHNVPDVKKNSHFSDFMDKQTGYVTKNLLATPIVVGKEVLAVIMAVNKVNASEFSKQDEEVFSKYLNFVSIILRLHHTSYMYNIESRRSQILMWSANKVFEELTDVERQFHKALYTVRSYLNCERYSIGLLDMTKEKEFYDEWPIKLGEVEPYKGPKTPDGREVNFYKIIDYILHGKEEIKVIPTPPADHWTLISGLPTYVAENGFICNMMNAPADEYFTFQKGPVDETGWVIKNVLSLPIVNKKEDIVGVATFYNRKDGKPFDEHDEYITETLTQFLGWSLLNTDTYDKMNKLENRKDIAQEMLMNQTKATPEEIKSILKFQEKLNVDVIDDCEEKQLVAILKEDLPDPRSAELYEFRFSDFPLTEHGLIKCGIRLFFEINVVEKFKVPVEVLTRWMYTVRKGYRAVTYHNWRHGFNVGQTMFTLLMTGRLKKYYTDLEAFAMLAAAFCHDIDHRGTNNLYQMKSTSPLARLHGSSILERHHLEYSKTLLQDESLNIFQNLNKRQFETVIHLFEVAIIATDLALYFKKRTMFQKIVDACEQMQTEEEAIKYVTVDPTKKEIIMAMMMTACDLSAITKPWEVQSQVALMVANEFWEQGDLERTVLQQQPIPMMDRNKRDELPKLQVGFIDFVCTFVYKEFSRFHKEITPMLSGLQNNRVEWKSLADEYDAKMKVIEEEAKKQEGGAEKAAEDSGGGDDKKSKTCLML

Experiments:
Assay in all cases: log2 fold change, soluble protein after heating vs DMSO (PISA); higher = thermal stabilisation; K562 cells, 10 uM, 30 min; active = over 0.2 and 3.5 SD of the protein, either way, in both replicates (recomputed)
[1] = compound: CS(=O)(=O)c1ccc(-c2cnc(N)c(C(=O)Nc3ccccc3)n2)cc1
How it was run: (§1)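 Aliquots of K562 cells (2×10^6 cells/mL) treated with 10 μM compound for 30 min were heated for 3 min over 48°C-58°C. After pooling and extraction in PBS with 0.5% NP-40 at 4°C, soluble protein from a 21,000xg, 90 min spin was quantified by TMTpro 16plex LC-MS/MS with channel sums equalised. Thermal stability is expressed against control samples, from duplicates, as a log2 fold change.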

crizotinib = compound: C[C@@H](Oc1cc(-c2cnn(C3CCNCC3)c2)cnc1N)c1c(Cl)ccc(F)c1Cl [crizotinib]
How it was run: as §1

[2] = compound: C[C@@H]1COCCN1C2=NC(=NC(=C2)C3(CC3)S(=O)(=O)C)C4=C5C=CNC5=CC=C4
How it was run: as §1

duvelisib = compound: C[C@H](Nc1ncnc2nc[nH]c12)c1cc2cccc(Cl)c2c(=O)n1-c1ccccc1 [duvelisib]
How it was run: as §1

gandotinib = compound: Cc1cc(Nc2cc(CN3CCOCC3)c3nc(C)c(Cc4ccc(Cl)cc4F)n3n2)n[nH]1 [gandotinib]
How it was run: as §1

tozasertib = compound: Cc1cc(Nc2cc(N3CCN(C)CC3)nc(Sc3ccc(NC(=O)C4CC4)cc3)n2)n[nH]1 [tozasertib]
How it was run: as §1

[3] = compound: Cc1cc(SCc2sc(-c3ccc(C(F)(F)F)cc3)nc2C)ccc1OCC(=O)O
How it was run: as §1

doramapimod = compound: Cc1ccc(-n2nc(C(C)(C)C)cc2NC(=O)Nc2ccc(OCCN3CCOCC3)c3ccccc23)cc1 [doramapimod]
How it was run: as §1

ispinesib = compound: Cc1ccc(C(=O)N(CCCN)[C@@H](c2nc3cc(Cl)ccc3c(=O)n2Cc2ccccc2)C(C)C)cc1 [ispinesib]
How it was run: as §1

bafetinib = compound: Cc1ccc(NC(=O)c2ccc(CN3CC[C@H](N(C)C)C3)c(C(F)(F)F)c2)cc1Nc1nccc(-c2cncnc2)n1 [bafetinib]
How it was run: as §1

[4] = compound: Cc1cccc(CC(=O)N2CCc3c2ccc(-c2cn(C)c4ncnc(N)c24)c3F)n1
How it was run: as §1

nilotinib = compound: Cc1cn(-c2cc(NC(=O)c3ccc(C)c(Nc4nccc(-c5cccnc5)n4)c3)cc(C(F)(F)F)c2)cn1 [nilotinib]
How it was run: as §1

[5] = compound: Cc1nc(Nc2n[nH]c3c2CN(C(=O)N[C@H](CN(C)C)c2ccccc2)C3(C)C)c2sccc2n1
How it was run: as §1

dasatinib = compound: Cc1nc(Nc2ncc(C(=O)Nc3c(C)cccc3Cl)s2)cc(N2CCN(CCO)CC2)n1 [dasatinib]
How it was run: as §1

[6] = compound: Cc1ncc(-c2ccnc(Nc3ccc(S(C)(=O)=O)cc3)n2)n1C(C)C
How it was run: as §1

[7] = compound: Cn1cc(-c2ccc3nnc(C(F)(F)c4ccc5ncccc5c4)n3n2)cn1
How it was run: as §1

mubritinib = compound: FC(F)(F)c1ccc(/C=C/c2nc(COc3ccc(CCCCn4ccnn4)cc3)co2)cc1 [mubritinib]
How it was run: as §1

[8] = compound: C[C@H](C1=CC=C(C=C1)C(=O)NC2=C3C=CNC3=NC=C2)N
How it was run: as §1

[9] = compound: Cn1cc(-c2ccc3c(c2)CCN3C(=O)Cc2cccc(C(F)(F)F)c2)c2c(N)ncnc21
How it was run: as §1

tipifarnib = compound: Cn1cncc1[C@@](N)(c1ccc(Cl)cc1)c1ccc2c(c1)c(-c1cccc(Cl)c1)cc(=O)n2C [tipifarnib]
How it was run: as §1

Measured: log2 fold change

PCIF1 (UniProt Q9H4Z3)
inactive: [1] -0.104 | crizotinib 0.057 | [2] 0.075 | duvelisib 0.174 | gandotinib 0.068 | tozasertib 0.009 | [3] 0.035 | doramapimod -0.024 | ispinesib 0.086 | bafetinib 0.016 | [4] -0.053 | nilotinib -0.025 | [5] -0.043 | dasatinib -0.116 | [6] 0.011 | [7] 0.026 | mubritinib 0.218

PBK (UniProt Q96KB5)
inactive: [1] 0.048 | crizotinib -0.046 | [2] 0.051 | [8] 0.134 | gandotinib -0.136 | [3] 0.157 | doramapimod 0.015 | ispinesib -0.066 | bafetinib 0.064 | [4] 0.064 | nilotinib -0.053 | [5] -0.152 | dasatinib -0.084 | [6] 0.078 | [9] -0.004 | [7] 0.059 | tipifarnib -0.067 | mubritinib -0.06

PACS1 (UniProt Q6VY07)
inactive: [1] 0.013 | crizotinib -0.053 | [2] 0.051 | [8] -0.015 | gandotinib -0.018 | [3] -0.014 | doramapimod 0.06 | ispinesib 0.042 | bafetinib 0.008 | [4] 0.02 | nilotinib 0.051 | [5] 0.038 | dasatinib 0.018 | [6] -0.018 | [9] -0.006 | [7] -0.098 | tipifarnib -0.002 | mubritinib -0.021

PDCD4 (UniProt Q53EL6)
inactive: [1] 0.096 | crizotinib 0.09 | [2] 0.303 | [8] 0.007 | gandotinib -0.141 | [3] 0.066 | doramapimod -0.047 | ispinesib 0.039 | bafetinib 0.065 | [4] -0.014 | nilotinib 0.017 | [5] 0.025 | dasatinib -0.144 | [6] 0.144 | [9] 0.022 | [7] 0.077 | tipifarnib -0.172 | mubritinib 0.104

PEA15 isoform 2 (UniProt Q15121)
inactive: [1] 0.012 | crizotinib 0.136 | [2] 0.141 | [8] -0.048 | gandotinib -0.073 | [3] 0.048 | doramapimod 0.003 | ispinesib 0.034 | bafetinib -0.077 | [4] -0.008 | nilotinib 0 | dasatinib -0.026 | [6] -0.004 | [9] 0.036 | [7] 0.021 | tipifarnib 0.04 | mubritinib 0.054
active: [5] -0.4

PDLIM7 (UniProt Q9NR12)
inactive: [1] -0.01 | crizotinib -0.075 | [2] -0.002 | [8] -0.05 | gandotinib 0.026 | [3] 0.004 | doramapimod 0.012 | ispinesib -0.075 | bafetinib -0.01 | [4] 0.107 | nilotinib 0 | [5] -0.078 | dasatinib -0.036 | [6] -0.01 | [9] 0.006 | [7] -0.048 | tipifarnib -0.091 | mubritinib -0.042

PAFAH1B3 (UniProt Q15102)
inactive: [1] 0.059 | crizotinib 0.041 | [2] 0.165 | [8] -0.039 | gandotinib -0.062 | [3] 0.031 | doramapimod -0.009 | ispinesib 0.014 | bafetinib 0.003 | [4] 0.058 | nilotinib 0.008 | [5] -0.031 | dasatinib -0.065 | [6] -0.011 | [9] 0.192 | [7] 0.039 | tipifarnib -0.163 | mubritinib 0.075

PAFAH2 (UniProt Q99487)
inactive: [1] 0.005 | crizotinib 0.029 | [8] 0.08 | [3] -0.057 | doramapimod 0.053 | ispinesib -0.044 | bafetinib -0.083 | dasatinib -0.146 | [9] 0.079 | [7] 0.029
active: tipifarnib 0.611

PDZD11 isoform 2 (UniProt Q5EBL8)
inactive: [1] 0.062 | crizotinib 0.044 | [2] 0.089 | duvelisib 0.12 | gandotinib 0.013 | tozasertib 0.055 | [3] 0.04 | doramapimod 0.073 | ispinesib 0.048 | bafetinib -0.022 | [4] -0.016 | nilotinib -0.02 | [5] -0.033 | dasatinib 0.043 | [6] 0.022 | [7] 0 | tipifarnib -0.058 | mubritinib 0.057

Reprinted at random: 2 records from the list
PAFAH1B3 (UniProt Q15102)
inactive: [1] 0.059 | crizotinib 0.041 | [2] 0.165 | [8] -0.039 | gandotinib -0.062 | [3] 0.031 | doramapimod -0.009 | ispinesib 0.014 | bafetinib 0.003 | [4] 0.058 | nilotinib 0.008 | [5] -0.031 | dasatinib -0.065 | [6] -0.011 | [9] 0.192 | [7] 0.039 | tipifarnib -0.163 | mubritinib 0.075

PDZD11 isoform 2 (UniProt Q5EBL8)
inactive: [1] 0.062 | crizotinib 0.044 | [2] 0.089 | duvelisib 0.12 | gandotinib 0.013 | tozasertib 0.055 | [3] 0.04 | doramapimod 0.073 | ispinesib 0.048 | bafetinib -0.022 | [4] -0.016 | nilotinib -0.02 | [5] -0.033 | dasatinib 0.043 | [6] 0.022 | [7] 0 | tipifarnib -0.058 | mubritinib 0.057

The listing continues.

PCGF2 (UniProt P35227)
inactive: [1] 0.041 | crizotinib 0.01 | [2] 0.075 | [8] 0.087 | gandotinib 0.121 | [3] 0.15 | doramapimod -0.089 | ispinesib 0.021 | bafetinib 0.015 | [4] -0.035 | nilotinib -0.097 | [5] -0.235 | dasatinib -0.127 | [6] 0.028 | [9] 0.004 | [7] 0.081 | tipifarnib 0.001 | mubritinib -0.001

PCBP2 (UniProt F8VRH0)
inactive: [1] -0.181 | crizotinib -0.075 | [2] -0.22 | [8] -0.267 | gandotinib 0.013 | [3] 0.074 | doramapimod -0.225 | bafetinib 0.293 | [4] -0.039 | nilotinib -0.347 | [5] -0.215 | dasatinib -0.146 | [6] -0.009 | [9] 0.112 | tipifarnib 0.067 | mubritinib 0.129

PCBP2 isoform 3 (UniProt Q15366)
inactive: [1] -0.036 | crizotinib -0.018 | [2] 0.06 | [8] -0.031 | gandotinib -0.065 | [3] 0.072 | doramapimod -0.008 | ispinesib 0.005 | bafetinib 0.037 | [4] 0.083 | nilotinib -0.095 | [5] -0.156 | dasatinib -0.132 | [6] -0.058 | [9] 0.007 | [7] 0.018 | tipifarnib -0.08 | mubritinib 0.004

PCGF5 (UniProt Q86SE9)
inactive: [1] 0.043 | crizotinib 0.007 | [2] -0.055 | duvelisib 0.153 | [3] 0.319 | doramapimod 0.125 | ispinesib 0.232 | bafetinib 0.041 | dasatinib -0.49 | [7] 0.142

PELP1 (UniProt Q8IZL8)
inactive: [1] -0.006 | crizotinib -0.012 | [2] -0.107 | [8] -0.024 | gandotinib -0.282 | [3] 0.111 | doramapimod 0.019 | ispinesib 0.004 | bafetinib 0.005 | [4] -0.115 | nilotinib -0.007 | [5] 0.007 | dasatinib 0.004 | [6] -0.047 | [9] 0.064 | [7] -0.034 | tipifarnib 0.063 | mubritinib -0.009

PDCD2L (UniProt Q9BRP1)
inactive: [1] -0.059 | crizotinib -0.048 | [2] -0.083 | [8] 0.068 | gandotinib 0.225 | [3] 0.097 | doramapimod -0.058 | ispinesib 0.062 | bafetinib 0.026 | [4] 0.077 | nilotinib -0.137 | [5] 0.035 | dasatinib -0.122 | [6] -0.062 | [9] -0.022 | [7] 0.015 | tipifarnib -0.13 | mubritinib 0.018

PARP1 (UniProt P09874)
inactive: [1] 0.088 | crizotinib 0.037 | [2] 0.007 | [8] 0.012 | gandotinib -0.029 | [3] 0.165 | doramapimod -0.065 | ispinesib -0.126 | bafetinib 0.05 | [4] -0.009 | nilotinib -0.028 | [5] -0.112 | dasatinib -0.245 | [6] 0.178 | [9] 0.026 | [7] 0.131 | tipifarnib -0.117 | mubritinib 0.044

PDCD6 (UniProt O75340)
inactive: [1] 0.029 | crizotinib -0.047 | [2] 0.051 | [8] -0.021 | gandotinib -0.056 | [3] 0.038 | doramapimod 0.002 | ispinesib -0.045 | bafetinib -0.11 | [4] -0.005 | nilotinib -0.071 | [5] 0.042 | dasatinib -0.021 | [6] -0.026 | [9] 0.027 | [7] 0.022 | tipifarnib -0.034 | mubritinib 0.009

PDE6C (UniProt P51160)
inactive: [1] -0.111 | crizotinib -0.008 | [8] 0 | duvelisib -0.132 | tozasertib -0.02 | [3] 0.001 | doramapimod -0.013 | ispinesib 0.004 | bafetinib 0.124 | nilotinib -0.28 | [5] 0.116 | dasatinib -0.079 | [6] -0.178 | [9] 0.148 | [7] 0.066 | tipifarnib -0.139 | mubritinib -0.027
